# PubChem BioAssay AID504808 | Drosophila RNAi Screening Center – 2011
# Assay: 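Chromatin factors that keep E2F targets switched off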 (primary screen)
# Cells: Drosophila S2 cells
# Reagent: long dsRNA against Drosophila genes
# Read-out: 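Dual luciferase plate measurements; E2F-specific signal taken as firefly over Renilla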
# Reading the numbers: E2F firefly: higher = more E2F reporter activity; Renilla normaliser: higher = more normaliser reporter signal
# Call rule: 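Called active if the normalised E2F reporter went up by over 50%; the cutoff is arbitrary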
# The deposit covers about 21,000 reagents; this is an unselected part of those with a known target gene and a result. In the full data, 18 (0.084%) were called active. 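Raw counts without plate normalisation, one of two replicates; the ratio scores behind the calls were not deposited.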 A plus sign joins genes that one reagent is predicted to hit. Not stated in the record: the amount of reagent, the time to read-out.
gene knocked down,DRSC id,"E2F firefly, rep 1","Renilla normaliser, rep 1",Call
MESR3 (GeneID 35116),DRSC02463,86343,4017,inactive
CG1492 (GeneID 32164),DRSC19605,56733,4555,inactive
P58IPK (GeneID 41161),DRSC16404,1.65e5,6442,inactive
CG9150 (GeneID 33856),DRSC03148,1.46e5,5497,inactive
Acp65Aa (GeneID 38710),DRSC09663,1.04e5,4014,inactive
Alg12 (GeneID 41191),DRSC16416,1.67e5,7697,inactive
Pk34A (GeneID 34705),DRSC03398,92327,4019,inactive
cv-c (GeneID 41749),DRSC14969,1.10e5,5778,inactive
cv-c (GeneID 41749),DRSC14970,1.18e5,6222,inactive
cv-c (GeneID 41749),DRSC14971,70692,5303,inactive
cv-c (GeneID 41749),DRSC14972,1.17e5,6073,inactive
cv-c (GeneID 41749),DRSC14973,91099,4649,inactive
cv-c (GeneID 41749),DRSC16428,1.04e5,6428,inactive
Pif2 (GeneID 170876),DRSC12525,1.37e5,6650,inactive
Naa40 (GeneID 43500),DRSC16265,1.27e5,6244,inactive
CG30458 (GeneID 246624),DRSC06660,1.40e5,4493,inactive
exex (GeneID 38884),DRSC10972,86631,3722,inactive
Cyp6a23 (GeneID 36661),DRSC07383,1.01e5,4661,inactive
Atg12 (GeneID 39383),DRSC09803,1.01e5,5177,inactive
CG15435 (GeneID 33655),DRSC00450,1.56e5,5139,inactive
pinta (GeneID 42635),DRSC14698,83591,4013,inactive
parvin (GeneID 32990),DRSC19468,1.53e5,6712,inactive
CG30089 (GeneID 36736),DRSC06126,66886,3071,inactive
CG30089 (GeneID 36736),DRSC06127,87624,3570,inactive
CG30089 (GeneID 36736),DRSC06267,88480,3663,inactive
CG30089 (GeneID 36736),DRSC06268,52580,4447,inactive
TyrRII (GeneID 42135),DRSC15150,1.18e5,7676,inactive
AspRS (GeneID 36420),DRSC05914,3011,203,inactive
AMPKalpha (GeneID 43904),DRSC18714,1592,872,inactive
CG6484 (GeneID 36994),DRSC06991,72767,3458,inactive
CG9812 (GeneID 37709),DRSC04566,1.03e5,4288,inactive
mmy (GeneID 33903),DRSC02002,89331,3737,inactive
CG42539 (retired record) (GeneID 8674027),DRSC13691,80761,2832,inactive
Las (GeneID 40259),DRSC11772,69744,4145,inactive
CatB (GeneID 34198),DRSC03194,90471,3622,inactive
Swim (GeneID 37537),DRSC04334,81594,3426,inactive
GstD4 (GeneID 48337),DRSC16685,1.66e5,7146,inactive
CG32196 (GeneID 317908),DRSC09548,1.53e5,4324,inactive
CG12477 (GeneID 40040),DRSC09886,1.67e5,8989,inactive
Ntf-2r (GeneID 35101),DRSC02019,85537,136,inactive
Cpr76Bd (GeneID 40123),DRSC11063,1.39e5,5555,inactive
RpS19b (GeneID 42830),DRSC15773,76729,6069,inactive
l(1)G0196 (GeneID 33137),DRSC20591,76976,2394,inactive
l(1)G0196 (GeneID 33137),DRSC20628,1.55e5,6065,inactive
l(1)G0196 (GeneID 33137),DRSC20629,1.43e5,5821,inactive
Rtf1 (GeneID 37554),DRSC04085,93438,4096,inactive
Npl4 (GeneID 43091),DRSC15615,1703,932,inactive
Npl4 (GeneID 43091),DRSC15616,1.12e5,6479,inactive
CG7173 (GeneID 40392),DRSC11812,51954,3276,inactive
dac (GeneID 34982),DRSC03518,95089,4259,inactive
Dgat2 (GeneID 35719),DRSC06803,3354,62,inactive
koi (GeneID 35594),DRSC04980,1.53e5,5049,inactive
flw (GeneID 44289),DRSC17992,44603,4178,inactive
flw (GeneID 44289),DRSC18774,46211,4715,inactive
CG10958 (GeneID 31736),DRSC17768,8161,640,inactive
Daao2 (GeneID 33955),DRSC02135,1.02e5,4326,inactive
Tat (GeneID 32381),DRSC19602,1.49e5,5619,inactive
Vm26Ab (GeneID 33827),DRSC03473,1.53e5,4918,inactive
CG1631 (GeneID 33029),DRSC20535,1.33e5,6185,inactive
Tsp42Eo (GeneID 35625),DRSC06184,1.50e5,5343,inactive
CG2157 (GeneID 32018),DRSC19836,1.38e5,5460,inactive
CG42809 + CG42810,DRSC02532,1.05e5,4874,inactive
CG42809 + CG42810,DRSC02533,1.02e5,4190,inactive
CG33060 (GeneID 39807),DRSC09939,1.57e5,7082,inactive
CG42566 (GeneID 8674120),DRSC03949,1.25e5,4725,inactive
Ilp4 (GeneID 39152),DRSC10701,1.16e5,6287,inactive
Best2 (GeneID 38727),DRSC09712,1.00e5,4018,inactive
CG6656 (GeneID 42576),DRSC16085,73111,3509,inactive
tap (GeneID 39935),DRSC11402,1.78e5,9231,inactive
His4:CG33883 + His4:CG33889 + His4:CG33899 + 20 more,DRSC21268,1.14e5,13452,inactive
CG1360 (GeneID 35695),DRSC06406,1.31e5,4496,inactive
Had1 (GeneID 32592),DRSC20216,1.57e5,5933,inactive
Adk3 (GeneID 44750),DRSC05917,78507,3007,inactive
CG14647 (GeneID 40558),DRSC12233,75526,3513,inactive
CG32512 (GeneID 33085),DRSC20519,1.38e5,7023,inactive
CG32512 (GeneID 33085),DRSC20551,1.09e5,6728,inactive
CG3609 (GeneID 33421),DRSC00620,1.57e5,5924,inactive
kis (GeneID 33185),DRSC00521,1.63e5,5484,inactive
kis (GeneID 33185),DRSC00625,1.50e5,4847,inactive
kis (GeneID 33185),DRSC00823,86006,3610,inactive
CG18746 (GeneID 59142),DRSC15383,1.15e5,5136,inactive
CG14011 (GeneID 33790),DRSC02343,1.38e5,5092,inactive
CG14259 (GeneID 43261),DRSC14754,1.22e5,6318,inactive
mxc (GeneID 31869),DRSC17819,1.10e5,4927,inactive

Already shown: an excerpt of the list.
gene knocked down,DRSC id,"E2F firefly, rep 1","Renilla normaliser, rep 1",Call
Adk3 (GeneID 44750),DRSC05917,78507,3007,inactive
CG14647 (GeneID 40558),DRSC12233,75526,3513,inactive
CG32512 (GeneID 33085),DRSC20519,1.38e5,7023,inactive
CG32512 (GeneID 33085),DRSC20551,1.09e5,6728,inactive
CG3609 (GeneID 33421),DRSC00620,1.57e5,5924,inactive
kis (GeneID 33185),DRSC00521,1.63e5,5484,inactive
kis (GeneID 33185),DRSC00625,1.50e5,4847,inactive
kis (GeneID 33185),DRSC00823,86006,3610,inactive
CG18746 (GeneID 59142),DRSC15383,1.15e5,5136,inactive
CG14011 (GeneID 33790),DRSC02343,1.38e5,5092,inactive
CG14259 (GeneID 43261),DRSC14754,1.22e5,6318,inactive
